Percent effect of library compounds

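Whole-parasite assay of Trypanosoma brucei over 72 hours; the read-out is not stated. Compounds at 30 µM. Higher reads as stronger inhibition (inferred: compounds with an IC50 in retests scored well above the rest). Values scatter widely below zero; nearly all retest evidence comes from the higher of the two concentrations used. Size under these conditions: about 64,000 compounds, about 940 of them at 50% or above in at least one test.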

Results are given as percent effect. The record does not define 0% and 100%; most values in the screen are far below 50% and negative numbers occur (in some assays of this library far below -100). The compounds are a random part of those screened.

| # | SMILES | effect |
|---|---|---|
| 1 | `Cc1ncsc1C(=O)N(C)Cc1ccccc1` | 6.143% |
| 2 | `Cc1nn(Cn2ccc(C(=O)N3CCCC3)n2)c(C)c1Cl` | -22.26% |
| 3 | `CC1(C)[C@H](Cc2cc(CN3CCCCC3)on2)C[C@@H]1NC(=O)C1CC1` | -26.29% |
| 4 | `CN(C)c1cc2c(nn1)CCN(C(=O)C1Cc3ccccc3O1)C2` (stereo not given) | -11.04% |
| 5 | `Cc1noc(CNc2c(N3CCCC3)cccc2N2CCCC2)n1` | -1.503% |
| 6 | `CCc1nnc2n1CCN(CC(=O)N1CCc3ccccc3C1)C2` | -9.071% |
| 7 | `COc1cccc(-c2cc(C(=O)N3N=C(C)CC3(O)C(F)(F)F)[nH]n2)c1` (stereo not given) | -29.98% |
| 8 | `CC(NC(=O)c1ccc2c(c1)OCC(=O)N2)c1ccccc1F` (stereo not given) | 46.76% |
| 9 | `[H][C@]12CC[C@]([H])(CN(C3Cc4ccccc4C3)C1)N(C(=O)CO)C2` | -25.97% |
| 10 | `CCC(C(=O)N(C)C)n1ccc2ncccc2c1=O` (stereo not given) | 0.2699% |
| 11 | `O=C1COC2(CCN(Cc3ccncc3)CC2)CN1CC1CC1` | -63.87% |
| 12 | `Cc1cccc2nc(CSCC(=O)Nc3nnc(C(C)C)s3)cc(=O)n12` | -11.21% |
| 13 | `CCCS(=O)(=O)N1CCC2(CC1)CN(c1ccccn1)CCO2.O=C(O)C(F)(F)F` | -41.94% |
| 14 | `Cc1nc(CN2C(=O)COC3(CCN(Cc4ccco4)CC3)C2C)cs1.O=C(O)C(F)(F)F` (stereo not given) | -16.31% |
| 15 | `Cc1noc(C)c1CN1C[C@@H](NS(=O)(=O)N(C)C)[C@H](C(C)C)C1` | -15.16% |
| 16 | `OCC1(CCOc2ccccc2)CCCN(c2ccc(Cl)cn2)C1` (stereo not given) | -34.7% |
| 17 | `CCc1ccc(CN2CCc3ncnc(-c4cccnc4)c3CC2)o1.O=C(O)C(F)(F)F.O=C(O)C(F)(F)F` | -16.86% |
| 18 | `CC1(C)CNC(=O)c2nc(CCN3CCOCC3)[nH]c2C1` | -11.97% |
| 19 | `COc1cccc(CC2(C(=O)O)CCN(c3nccs3)CC2)c1` | -18.85% |
| 20 | `COC(=O)CNC(=O)c1ccc(OC2CCN(S(C)(=O)=O)CC2)c(Cl)c1` | -11.56% |
| 21 | `CCC(C)C(=O)NCc1ccn(-c2ccc(F)cc2)n1` (stereo not given) | 0.9658% |
| 22 | `COC1CCCN(c2nc(C)nc3c2CCN(Cc2ccco2)CC3)C1` (stereo not given) | -30.8% |
| 23 | `Cc1cc(C)n(C2CN(CC(O)c3ccc(C(F)(F)F)cc3)C2)n1` (stereo not given) | -2.782% |
| 24 | `Cc1ccccc1CSc1ncc(Br)c(C(=O)O)n1` | -58.64% |
| 25 | `CCCn1nnc(NCc2ccc(-c3ccc(Br)cc3)o2)n1` | 9.442% |
| 26 | `Nc1nc2c(c(=O)[nH]1)CCN(C(=O)c1cccc3nccnc13)C2` | -11.08% |
| 27 | `CCCN1CCC(C(=O)NCCN(CC)c2ccccc2C)CC1` | 0.8515% |
| 28 | `CCOCC1CN(S(=O)(=O)N(C)C)Cc2cnn(C)c21.O=C(O)C(F)(F)F` (stereo not given) | 56.34% |
| 29 | `Cc1ccc2c(n1)N(CCn1cccn1)CCN(C(=O)CC1CC1)C2.O=C(O)C(F)(F)F` | -14.44% |
| 30 | `[H][C@@]12C[C@H](C(=O)Nc3cccnc3)CN(Cc3ccc(C)o3)[C@]1([H])CCO2` | 3.936% |
| 31 | `CS(=O)(=O)NC1CCN(C(=O)NCc2cc[nH]n2)CC1` | -8.665% |
| 32 | `O=C(COc1cccnc1)N1CCOC(C(F)(F)F)C1` (stereo not given) | -55.15% |
| 33 | `CN(C)c1cc(CNC(=O)Nc2ccc(F)cc2)ccn1` | 5.252% |
| 34 | `Cc1cnn(CC2CCCN2C(=O)c2c(C)noc2C)c1` (stereo not given) | 8.017% |
| 35 | `O=C(O)C(F)(F)F.O=C(O)C(F)(F)F.c1cncc(OCC2CN(Cc3nccs3)Cc3nccn3C2)c1` (stereo not given) | -9.916% |
| 36 | `CC(CNC(=O)C1(c2ccc(F)cc2)CC1)CN1CCCC1=O` (stereo not given) | -15.56% |
| 37 | `COCCC(=O)N1CCc2c(CNc3ncccn3)cncc2C1.Cl` | -15% |
| 38 | `Cc1c(C(=O)N2CC(O)C2)nnn1-c1cccc2cnccc12` | -8.813% |
| 39 | `Cn1ccc2c(-c3ccc(NCCO)nn3)ccnc21` | -0.2469% |
| 40 | `CS(=O)(=O)NCC(=O)N[C@H]1CN(c2cnccn2)C[C@@H]1C1CC1` | -53.05% |
| 41 | `Cc1cc(-c2cnn(CCNC(=O)c3snnc3C)c2C2CC2)on1` | 9.839% |
| 42 | `CCOCC1CN(C(=O)c2ccoc2)Cc2nn(C)cc21` (stereo not given) | 4.718% |
| 43 | `COc1cccc2c1OCC(Cc1ccc(N)nc1C)C2` (stereo not given) | -1.865% |
| 44 | `Cn1cnc2c(N3CCCC3)nc(C3CCN(CC4CC4)CC3)cc21.O=C(O)C(F)(F)F.O=C(O)C(F)(F)F` | 11.32% |
| 45 | `OCCOCCN1CCCC1c1nc2cc(F)ccc2[nH]1` (stereo not given) | -12.84% |
| 46 | `CCc1cc(NCCCc2nc(C)no2)nc(-c2ccncc2)n1` | -44.96% |
| 47 | `Cc1nc(CNC(=O)Nc2cc(F)ccc2OC(F)F)no1` | 14.07% |
| 48 | `Cn1cc(CN2CCC3(CC2)CN(C(=O)c2cnccn2)CCO3)cn1` | -5.88% |
| 49 | `COc1cccc(-c2cc(C(=O)NCCCn3nc(C)cc3C)[nH]n2)c1` | -12.77% |
| 50 | `Cc1ccc(CNCc2c(C)nn(C)c2N(C)C)cn1` | -43.71% |
| 51 | `CN1CCN(c2ccccc2CNC(=O)CSC(F)(F)F)CC1` | -38.03% |
| 52 | `CC(C)(C)c1nc(NS(=O)(=O)c2ccc(F)cc2)no1` | -16.84% |
| 53 | `CN1CCN(C2CCN(Cc3nc(-c4ccoc4)no3)CC2)C1=O` | -10.28% |

For reference, 3 entries once more:

{"smiles": "Cc1c(C(=O)N2CC(O)C2)nnn1-c1cccc2cnccc12", "effect": -8.813}
{"smiles": "OCCOCCN1CCCC1c1nc2cc(F)ccc2[nH]1", "stereo": "stereo not given", "effect": -12.84}
{"smiles": "CCc1cc(NCCCc2nc(C)no2)nc(-c2ccncc2)n1", "effect": -44.96}

Source: ChEMBL document CHEMBL3988442, “University of Dundee, Small-Polar-MMV Screening Library” (2021).